Results reported in PubChem BioAssay AID1671190 (National Center for Advancing Translational Sciences (NCATS), 2021).
“And” between values parts separate entries of the source, which are not always exact repeats. Identical values can stand only once. Out of some 580,000 compounds screened, about 6,100 (1.1%) were called active. Inconclusive results, whose numbers are uncertain, are shown with a selection of clear calls. The call rests on the fitted dose curve; in most records, active means well fitted inhibition curve with a large enough effect; inconclusive means small, poorly fitted or top-dose-only effect, or another doubt; inactive means no such curve, though single readings can be large or run the other way. Potencies beside an inconclusive call are fits to weak or partial responses and may not hold up.

Protein sequences, listed by entry. Tags and fused reporters are not part of them. Lines headed by an entry give the natural chain unless they say otherwise; changes in a name come on top.
UniProt P18054: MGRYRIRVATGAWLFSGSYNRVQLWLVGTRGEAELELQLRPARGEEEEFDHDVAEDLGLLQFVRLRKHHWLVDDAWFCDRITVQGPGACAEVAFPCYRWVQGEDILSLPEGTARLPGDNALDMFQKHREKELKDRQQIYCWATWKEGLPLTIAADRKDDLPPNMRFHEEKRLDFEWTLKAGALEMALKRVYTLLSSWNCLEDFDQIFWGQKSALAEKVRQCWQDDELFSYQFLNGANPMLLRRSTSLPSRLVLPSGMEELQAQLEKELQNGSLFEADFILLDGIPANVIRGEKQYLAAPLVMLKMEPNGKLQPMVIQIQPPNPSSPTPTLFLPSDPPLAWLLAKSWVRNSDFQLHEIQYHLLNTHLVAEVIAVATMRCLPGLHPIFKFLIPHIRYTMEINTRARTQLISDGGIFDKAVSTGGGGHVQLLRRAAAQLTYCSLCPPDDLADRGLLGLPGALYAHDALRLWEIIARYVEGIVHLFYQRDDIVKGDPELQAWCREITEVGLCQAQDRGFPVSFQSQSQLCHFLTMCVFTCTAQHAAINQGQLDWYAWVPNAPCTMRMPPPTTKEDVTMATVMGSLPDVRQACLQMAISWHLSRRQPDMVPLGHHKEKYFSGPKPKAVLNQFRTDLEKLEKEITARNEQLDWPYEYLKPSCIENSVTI

target: Polyunsaturated fatty acid lipoxygenase ALOX12 (Homo sapiens) (UniProt P18054); assay: Primary qHTS assay for inhibitors of human arachidonate 12S-lipoxygenase (ALOX12): Round 2; conditions: purified 12hLO, xylenol orange hydroperoxide absorbance; activity change, negative = inhibition: at 108 µM (top of the series) unless noted
Outline: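 Hydroperoxide product was detected by ferrous iron/xylenol orange as the 573 to 405 nm absorbance ratio. Arachidonic acid at 40 uM (final) was turned over for 30 min at room temperature by 150 nM human 12hLO, pH 7.0 Hepes buffer, after 15 min compound preincubation.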
On the % scale 0 is the no-effect control and ±100 the full control effect; potency means the concentration at half of the fitted maximal effect.

Row | Compound | Potency | activity change, negative = inhibition
1 | COc1cc2ccccc2cc1C(=O)Nc1ccccc1SCC(N)=O | inconclusive: 112 µM [inhibitor, single point] | –
2 | Cn1nc(C(F)(F)F)c(C(=O)Nc2ccc(F)cc2)c1Cl | inconclusive: 3.16 µM [inhibitor, full curve, poor fit] | –
3 | CC(C)(C)N(Cc1ccccc1)C(=O)COC(=O)CCc1c[nH]c2ccccc12 | inconclusive: 7.94 µM [inhibitor, full curve] | –
4 | CC(C)(C)OC(=O)N1CC(NCc2ccc(-c3ccc(OC(F)(F)F)cc3)cc2)C1 | – | inactive: 7.94% [at 6.33 µM]
5 | CC1NC(=O)c2cc3ccccc3cc2-n2c1nc1cc(F)ccc1c2=O (stereo unspecified) | inconclusive: 50.1 µM [inhibitor, partial curve, poor fit] | –
6 | CCOC(=O)C1(Cc2ccccc2C)CCCN(C(=O)CSC)C1 (stereo unspecified) | – | inactive: 0.801%
7 | O=c1[nH]cnc(O)c1C(c1ccc(Br)cc1)c1c(O)nc[nH]c1=O | – | inactive: -13.1%
8 | COc1ccc(-c2cc(-c3ccc(OC)cc3)c(C#N)c(SC)n2)cc1 | – | inactive: 11.6%
9 | COc1ccc(N2CCN(Cc3ccc(Br)s3)CC2)cc1 | inconclusive: 0.562 µM [inhibitor, full curve, poor fit] | –
10 | COc1ccccc1N(CCC#N)C(=O)CSc1ncnc2sc3c(c12)CCC3 | – | inactive: -12.9%
11 | CC(C)N(Cc1cn(Cc2ccccc2)nn1)S(=O)(=O)c1ccc(F)cc1Br | inconclusive: 70.8 µM [inhibitor, single point] | –
12 | N#Cc1c(N)oc(-c2ccco2)c1-c1ccco1 | inconclusive: 50.1 µM [inhibitor, single point] | –
13 | C=C(C)COc1ccc(-c2n[nH]c(C)c2-c2ccc(Br)cc2)c(O)c1 | inconclusive: 50.1 µM [inhibitor, partial curve, poor fit] | –
14 | CC(C)NC(=S)N/N=C/C1CC=CCC1 (stereo unspecified) | inconclusive: 39.8 µM [inhibitor, partial curve, poor fit] | –
15 | Cc1cc2nc3n(c(=O)c2n1CC(=O)NC1CCC(C)CC1)CCCCC3 (stereo unspecified) | inconclusive: 50.1 µM [inhibitor, partial curve, poor fit] | –
16 | CSc1ccc(C2=NN(S(=O)(=O)c3ccccc3)C(c3ccc4nccnc4c3)C2)cc1 (stereo unspecified) | inconclusive: 44.7 µM [inhibitor, partial curve, poor fit] | –
17 | CC(=O)Nc1ccc(S(=O)(=O)Nc2ccc(Nc3ccccc3)cc2)cc1 | inconclusive: 126 µM [inhibitor, single point] | –
18 | Cc1ccc(C(NC(=O)C2CCCCC2)c2cccnc2)cc1 (stereo unspecified) | inconclusive: 44.7 µM [inhibitor, single point] | –
19 | CN(CC(=O)NCCCc1ccccc1)Cc1ccc(Br)cc1 | inconclusive: 0.708 µM [inhibitor, full curve] | –
20 | C[C@H](O)[C@@H]1CN2CCc3ccc(-c4ccc5c(c4)OCO5)cc3[C@@H]2C[C@@H]1N(C)C(=O)c1ccco1 | inconclusive: 89.1 µM [inhibitor, single point] | –
21 | COc1cccc(CCNC(=O)c2cc(COc3cccc(OC)c3)on2)c1 | – | inactive: 8.6%
22 | CCc1noc(-c2cccn3c(CNC(=O)Cc4ccccc4Cl)nnc23)n1 | – | inactive: 28.5%

Row | Compound | Potency | activity change, negative = inhibition
23 | CCc1ccccc1N(C)C(=O)c1nn(-c2cccc(OC)c2)c(=O)c2ccccc12 | inconclusive: 44.7 µM [inhibitor, partial curve] | –
24 | N#CC1=C(SCC(N)=O)NC2=C(C(=O)c3ccccc32)C1c1ccc(Cl)cc1 (stereo unspecified) | inconclusive: 31.6 µM [inhibitor, partial curve] | –
25 | Cc1ccc(S(=O)(=O)N2CCN(C(=O)CNC(=O)c3ccc(Cl)cc3)CC2)cc1 | inconclusive: 126 µM [inhibitor, partial curve, poor fit] | –
26 | COc1ccccc1CCNC(=O)c1sc(NC2CC2)nc1C | inconclusive: 35.5 µM [inhibitor, full curve, poor fit] | –
27 | O=C(O)[C@H](Cc1ccccc1)NC(=O)N1CCOCC1 | inconclusive: 15.8 µM [inhibitor, partial curve, poor fit] | –
28 | FC(F)(F)c1nc(NCc2cccnc2)c2ccccc2n1 | – | inactive: 12.4%
29 | COc1ccc(NC(=O)CSc2nc(N)c(NC(=O)c3cccs3)c(=O)[nH]2)cc1 | inconclusive: 50.1 µM [inhibitor, partial curve, poor fit] | –
30 | O=C(O)CN1CCC(CO)CC1 | inconclusive: 3.16 µM [inhibitor, full curve, poor fit] | –
31 | CC(C)N1CCC(Nc2nc(-c3cccnc3)nc3ccccc23)CC1 | – | inactive: -1.26%
32 | CC(C)Cn1c(=O)c2ccccc2n2c(CCC(=O)N3CCN(c4ccccc4F)CC3)nnc12 | – | inactive: -24.4%
33 | CCCc1ccc(C(O)c2ncc(-c3ccccc3C)[nH]2)cc1 (stereo unspecified) | inconclusive: 89.1 µM [inhibitor, single point] | –
34 | CNc1ccc2ncc(-c3ccccc3C(C)=O)n2n1 | inconclusive: 100 µM [inhibitor, partial curve, poor fit] | –
35 | CCCn1c(-c2ccc(S(=O)(=O)N3CCOCC3)cc2)csc1=Nc1ccc(OCC)cc1 | inconclusive: 2.82 µM [inhibitor, full curve, poor fit] | –
36 | CCCn1c(-c2ccc(OCC#N)c(OC)c2)nc2c1c(=O)[nH]c(=O)n2Cc1ccccc1 | inconclusive: 31.6 µM [inhibitor, single point] | –
37 | Clc1ccc(Oc2cccc(CN3CCN(C4CCNC4)CC3)c2)cc1 (stereo unspecified) | – | inactive: 47.3%
38 | COc1ccccc1C(=O)NC1CC(C)(C)NC(C)(C)C1 | – | inactive: 5.74%
39 | COc1ccc(-c2cnc3c(NC=O)cc(-c4ccc(C(=O)N5CCOCC5)cc4)cn23)cc1OC | inconclusive: 22.4 µM [inhibitor, partial curve, poor fit] | –
40 | Cc1c(C(=O)N2c3ccccc3Sc3ccccc32)cccc1[N+](=O)[O-] | – | inactive: 6.84%
41 | Cc1ccc(-c2nnc(C3CN(C(=O)c4cc(F)ccc4F)CC34CCOCC4)o2)cc1 (stereo unspecified) | – | inactive: 0.261%
42 | Cc1ccc2nc(-c3ccc(O)cc3)c(Nc3ccc4c(c3)OCCO4)n2c1 | inconclusive: 141 µM [inhibitor, single point] | –
43 | NC(=O)C1=C[C@@H](c2csc3ccccc23)C[C@@H](OCCCCO)O1 | inconclusive: 28.2 µM [inhibitor, partial curve, poor fit] | –
44 | CCN1C(=O)N[C@@H](c2ccco2)C(C(=O)OC)=C1C | inconclusive: 100 µM [inhibitor, single point] | –

Row | Compound | Potency | activity change, negative = inhibition
45 | CC(C)(C)c1ccc(-c2cc(C[C@H]3CNCC[C@H]3CC(=O)Nc3nccs3)no2)cc1 | – | inactive: -15.5%
46 | CCOC(=O)c1c(NC(C)=O)sc2c1CCC(C=O)=C2Sc1ccccc1 | inconclusive: 5.01 µM [inhibitor, full curve] | –
47 | CC(C)Cn1c(SCC(=O)Nc2ccc(Cl)cn2)nc2ccccc21 | – | inactive: -2.22%
48 | COC(=O)Cc1c(O)ccn(Cc2ccc3c(c2)OCO3)c1=O | – | inactive: 3.78%
49 | OCCC1CN(Cc2ccc(-c3ccco3)cc2)CCN1Cc1ccsc1 (stereo unspecified) | – | inactive: -3.5%
50 | Cc1cccc2cc(C3CC(c4ccco4)=NN3S(C)(=O)=O)c(Cl)nc12 (stereo unspecified) | inconclusive: 35.5 µM [inhibitor, single point] and inconclusive: 25.1 µM [inhibitor, partial curve, poor fit] | –
51 | O=C(Cc1cccs1)N/N=C/C=C/c1ccco1 | inconclusive: 39.8 µM [inhibitor, partial curve, poor fit] | –
52 | CC(=O)N1c2ccc(S(=O)(=O)N3CCC(C(=O)Nc4cccc(C)c4)CC3)cc2CC1C (stereo unspecified) | – | inactive: 10.5%
53 | CSc1cccc(NC(=O)c2nnn(CC(=O)Nc3cc(C)cc(C)c3)c2N)c1 | – | inactive: -9.6%
54 | O=C(COc1ccc(Cl)cc1)NC(=S)Nc1ccccc1N1CCOCC1 | inconclusive: 50.1 µM [inhibitor, partial curve, poor fit] | –
55 | COc1ccc(CCNc2ncnc3c2cnn3-c2cccc(Cl)c2)cc1 | active: 39.8 µM | –
56 | COc1ccc(-c2nc(-c3cccs3)c(-c3cccs3)[nH]2)cc1OC | inconclusive: 35.5 µM [inhibitor, single point] | –
57 | Cc1ccc(NC(=O)/C(C#N)=C/c2ccc(C)o2)cc1 | – | inactive: 7.7%
58 | Cc1nn(C)c(N)c1C(O)(c1nccn1C)C(F)(F)F (stereo unspecified) | inconclusive: 56.2 µM [inhibitor, partial curve, poor fit] | –
59 | CCOC(=O)CSc1nc2sc3c(c2c(=O)[nH]1)CC(C)(CC)OC3 (stereo unspecified) | inconclusive: 44.7 µM [inhibitor, partial curve, poor fit] | –
60 | COc1ccc(C(=O)Nc2nc3ccccc3s2)cc1 | inconclusive: 79.4 µM [inhibitor, single point] | –
61 | Cc1cc(C)c(SCC(=O)NC(C)(C#N)C2CC2)c(C)c1 (stereo unspecified) | inconclusive: 2.82 µM [inhibitor, full curve, poor fit] | –
62 | CCOC(=O)c1cnn(-c2ccc([N+](=O)[O-])cc2)c1N | inconclusive: 141 µM [inhibitor, partial curve, poor fit] | –
63 | C[C@H](CO)N1C[C@H](C)[C@@H](CN(C)S(=O)(=O)c2ccccc2)Oc2ccc(NC(=O)Nc3ccc4c(c3)OCO4)cc2C1=O | inconclusive: 44.7 µM [inhibitor, partial curve, poor fit] | –
64 | CCOC(=O)N1CCN(C(=S)NC(=O)c2ccc(Br)cc2)CC1 | inconclusive: 70.8 µM [inhibitor, single point] | –
65 | CS(=O)(=O)c1ccc2nc(NC(=O)c3ccc(NS(=O)(=O)c4ccc(F)c(F)c4)cc3)sc2c1 | inconclusive: 100 µM [inhibitor, partial curve, poor fit] | –
66 | COc1ccccc1/C=C/C=C1\Oc2cc(OS(=O)(=O)c3ccccc3)ccc2C1=O | inconclusive: 25.1 µM [inhibitor, full curve, poor fit] | –
